Experimental data published in the supplement of paper PMC12823440, “Inhibitors supercharge kinase turnover through native proteolytic circuits” (Nature, 2025).
Counter-ions that a name gives are not always drawn. Some of the results follow. The calls rarely recur for the same compound in another form.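 Kinases, fused to nanoluciferase, were expressed in K562 cells; luminescence was measured every 4 h from 2 to 18 h as percent of control (DMSO = 100%, positive control = 0%). A time point is decreased if signal falls significantly (2 sigma). Hits were called by the authors by a rule that is not shown; the count of time points alone does not decide it.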

The chains behind the UniProt entries cited, without tags or fusion partners. Where a name states a change or a piece, a line headed by the entry shows the natural chain unless it says otherwise.
UniProt P06241, whole entry, looked up: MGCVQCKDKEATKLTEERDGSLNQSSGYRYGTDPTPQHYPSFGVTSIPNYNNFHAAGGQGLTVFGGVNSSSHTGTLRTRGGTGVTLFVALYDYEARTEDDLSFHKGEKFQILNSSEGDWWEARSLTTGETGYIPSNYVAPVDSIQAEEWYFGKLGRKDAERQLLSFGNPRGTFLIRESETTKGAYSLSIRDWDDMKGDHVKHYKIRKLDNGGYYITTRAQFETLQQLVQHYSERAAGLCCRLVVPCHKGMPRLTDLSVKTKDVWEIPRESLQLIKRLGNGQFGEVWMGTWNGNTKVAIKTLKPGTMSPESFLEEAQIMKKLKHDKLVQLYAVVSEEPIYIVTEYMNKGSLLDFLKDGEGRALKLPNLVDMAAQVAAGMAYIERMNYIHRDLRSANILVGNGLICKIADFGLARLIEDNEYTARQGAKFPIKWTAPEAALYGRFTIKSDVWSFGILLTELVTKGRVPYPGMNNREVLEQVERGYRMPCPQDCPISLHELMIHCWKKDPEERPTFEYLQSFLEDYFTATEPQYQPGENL
UniProt P23458: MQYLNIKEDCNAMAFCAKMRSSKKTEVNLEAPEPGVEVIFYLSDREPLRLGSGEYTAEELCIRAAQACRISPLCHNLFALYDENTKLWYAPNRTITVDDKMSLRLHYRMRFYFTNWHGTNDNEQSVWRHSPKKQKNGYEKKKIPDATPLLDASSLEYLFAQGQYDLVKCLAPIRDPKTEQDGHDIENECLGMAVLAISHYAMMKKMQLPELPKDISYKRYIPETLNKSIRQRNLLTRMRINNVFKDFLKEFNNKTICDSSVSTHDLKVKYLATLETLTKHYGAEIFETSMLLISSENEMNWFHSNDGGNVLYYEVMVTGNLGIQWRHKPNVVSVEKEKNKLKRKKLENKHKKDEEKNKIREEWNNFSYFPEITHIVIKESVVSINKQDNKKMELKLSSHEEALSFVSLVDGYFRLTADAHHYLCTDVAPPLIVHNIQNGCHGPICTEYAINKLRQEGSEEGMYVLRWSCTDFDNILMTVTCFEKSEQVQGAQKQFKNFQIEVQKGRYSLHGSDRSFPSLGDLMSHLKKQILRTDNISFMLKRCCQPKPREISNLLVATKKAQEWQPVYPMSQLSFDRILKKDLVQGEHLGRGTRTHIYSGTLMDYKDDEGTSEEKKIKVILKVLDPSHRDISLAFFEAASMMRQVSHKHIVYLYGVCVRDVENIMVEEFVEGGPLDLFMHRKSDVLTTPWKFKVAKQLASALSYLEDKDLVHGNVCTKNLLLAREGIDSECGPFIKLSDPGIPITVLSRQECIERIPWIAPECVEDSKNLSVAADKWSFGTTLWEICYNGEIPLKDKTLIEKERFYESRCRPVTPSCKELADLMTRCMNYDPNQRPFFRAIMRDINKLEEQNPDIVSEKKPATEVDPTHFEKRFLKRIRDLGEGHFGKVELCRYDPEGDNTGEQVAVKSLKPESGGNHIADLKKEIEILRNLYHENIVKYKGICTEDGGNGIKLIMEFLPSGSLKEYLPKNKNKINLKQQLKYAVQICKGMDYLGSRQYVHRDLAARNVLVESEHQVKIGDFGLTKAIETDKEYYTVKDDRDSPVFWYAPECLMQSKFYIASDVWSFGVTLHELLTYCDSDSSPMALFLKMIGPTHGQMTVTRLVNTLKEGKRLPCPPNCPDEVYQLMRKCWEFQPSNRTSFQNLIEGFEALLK
UniProt P06239: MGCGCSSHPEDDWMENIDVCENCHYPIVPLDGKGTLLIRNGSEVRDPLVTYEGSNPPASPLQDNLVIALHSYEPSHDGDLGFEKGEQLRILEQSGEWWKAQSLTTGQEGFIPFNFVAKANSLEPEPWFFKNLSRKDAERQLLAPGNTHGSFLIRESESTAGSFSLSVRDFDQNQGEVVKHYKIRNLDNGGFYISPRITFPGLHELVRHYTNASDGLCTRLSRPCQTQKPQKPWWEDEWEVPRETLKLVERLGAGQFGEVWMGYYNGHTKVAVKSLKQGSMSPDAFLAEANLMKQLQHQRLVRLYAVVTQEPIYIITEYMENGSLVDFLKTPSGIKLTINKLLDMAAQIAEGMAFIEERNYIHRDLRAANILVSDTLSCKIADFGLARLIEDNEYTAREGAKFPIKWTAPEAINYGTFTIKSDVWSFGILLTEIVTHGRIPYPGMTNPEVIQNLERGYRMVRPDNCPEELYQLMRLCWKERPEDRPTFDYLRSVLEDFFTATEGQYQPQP
UniProt P53667: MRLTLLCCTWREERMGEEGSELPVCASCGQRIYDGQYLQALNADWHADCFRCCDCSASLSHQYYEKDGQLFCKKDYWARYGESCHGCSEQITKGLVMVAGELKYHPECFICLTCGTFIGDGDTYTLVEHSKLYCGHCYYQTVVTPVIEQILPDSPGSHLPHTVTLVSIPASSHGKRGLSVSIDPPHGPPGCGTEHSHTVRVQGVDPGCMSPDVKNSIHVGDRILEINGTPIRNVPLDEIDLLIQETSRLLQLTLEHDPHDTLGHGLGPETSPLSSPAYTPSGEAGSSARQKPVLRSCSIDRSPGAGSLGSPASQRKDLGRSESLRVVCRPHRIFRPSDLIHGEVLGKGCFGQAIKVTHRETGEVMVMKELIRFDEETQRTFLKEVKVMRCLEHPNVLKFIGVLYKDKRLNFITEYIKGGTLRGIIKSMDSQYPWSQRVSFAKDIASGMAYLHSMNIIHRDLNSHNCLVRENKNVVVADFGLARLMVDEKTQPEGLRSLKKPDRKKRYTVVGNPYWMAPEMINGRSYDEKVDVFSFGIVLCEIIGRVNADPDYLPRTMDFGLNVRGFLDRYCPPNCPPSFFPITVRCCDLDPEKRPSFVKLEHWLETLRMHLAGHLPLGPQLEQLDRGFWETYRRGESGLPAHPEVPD
UniProt Q8IWU2: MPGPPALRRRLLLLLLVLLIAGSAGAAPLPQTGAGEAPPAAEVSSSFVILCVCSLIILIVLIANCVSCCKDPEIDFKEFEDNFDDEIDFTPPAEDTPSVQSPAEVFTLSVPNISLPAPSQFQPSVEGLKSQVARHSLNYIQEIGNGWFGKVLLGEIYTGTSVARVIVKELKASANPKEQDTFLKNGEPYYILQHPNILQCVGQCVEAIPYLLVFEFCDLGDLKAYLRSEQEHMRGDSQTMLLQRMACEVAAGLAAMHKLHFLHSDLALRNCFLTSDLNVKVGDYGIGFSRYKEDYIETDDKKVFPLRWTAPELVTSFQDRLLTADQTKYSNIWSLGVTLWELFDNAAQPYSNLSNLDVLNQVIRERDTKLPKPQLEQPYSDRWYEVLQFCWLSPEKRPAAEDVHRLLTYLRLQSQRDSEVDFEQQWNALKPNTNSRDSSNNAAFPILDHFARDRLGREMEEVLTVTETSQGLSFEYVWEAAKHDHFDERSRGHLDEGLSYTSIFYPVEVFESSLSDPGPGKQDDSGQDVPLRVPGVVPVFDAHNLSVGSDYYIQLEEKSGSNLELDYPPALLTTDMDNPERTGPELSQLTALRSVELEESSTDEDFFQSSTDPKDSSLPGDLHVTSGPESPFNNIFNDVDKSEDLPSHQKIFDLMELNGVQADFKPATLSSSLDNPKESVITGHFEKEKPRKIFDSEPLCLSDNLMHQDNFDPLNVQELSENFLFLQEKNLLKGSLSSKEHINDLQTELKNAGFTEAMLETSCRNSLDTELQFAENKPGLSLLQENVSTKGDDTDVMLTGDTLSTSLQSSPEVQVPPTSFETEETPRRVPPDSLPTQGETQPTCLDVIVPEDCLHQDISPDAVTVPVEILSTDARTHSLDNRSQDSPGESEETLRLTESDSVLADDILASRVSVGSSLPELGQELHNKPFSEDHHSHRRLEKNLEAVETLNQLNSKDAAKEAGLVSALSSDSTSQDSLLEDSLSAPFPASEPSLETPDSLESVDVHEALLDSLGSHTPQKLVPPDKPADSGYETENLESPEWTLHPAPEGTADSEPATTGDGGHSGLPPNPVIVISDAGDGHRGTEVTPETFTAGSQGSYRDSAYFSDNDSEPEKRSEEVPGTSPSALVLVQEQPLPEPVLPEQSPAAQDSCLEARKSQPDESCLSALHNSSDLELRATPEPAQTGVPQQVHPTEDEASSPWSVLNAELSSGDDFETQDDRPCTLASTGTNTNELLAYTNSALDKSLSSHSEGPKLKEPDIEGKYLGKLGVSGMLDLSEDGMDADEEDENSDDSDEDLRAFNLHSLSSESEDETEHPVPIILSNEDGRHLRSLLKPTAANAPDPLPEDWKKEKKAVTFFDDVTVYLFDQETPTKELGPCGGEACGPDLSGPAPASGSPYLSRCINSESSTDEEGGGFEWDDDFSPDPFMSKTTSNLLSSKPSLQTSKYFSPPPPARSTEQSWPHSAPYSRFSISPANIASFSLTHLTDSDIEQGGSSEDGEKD
UniProt P07948: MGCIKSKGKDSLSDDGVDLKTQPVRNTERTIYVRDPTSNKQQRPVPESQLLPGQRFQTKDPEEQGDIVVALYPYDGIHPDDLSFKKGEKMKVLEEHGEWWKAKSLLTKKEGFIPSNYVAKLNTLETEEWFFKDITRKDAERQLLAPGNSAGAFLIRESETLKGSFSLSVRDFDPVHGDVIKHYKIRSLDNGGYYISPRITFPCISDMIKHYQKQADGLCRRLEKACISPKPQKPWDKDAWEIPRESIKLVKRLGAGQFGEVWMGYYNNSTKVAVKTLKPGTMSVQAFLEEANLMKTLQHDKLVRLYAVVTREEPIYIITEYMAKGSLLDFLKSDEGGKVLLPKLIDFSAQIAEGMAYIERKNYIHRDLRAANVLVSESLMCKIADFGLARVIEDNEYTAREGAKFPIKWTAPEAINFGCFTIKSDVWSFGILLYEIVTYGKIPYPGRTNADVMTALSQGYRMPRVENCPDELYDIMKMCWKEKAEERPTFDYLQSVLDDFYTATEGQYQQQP
UniProt Q12851: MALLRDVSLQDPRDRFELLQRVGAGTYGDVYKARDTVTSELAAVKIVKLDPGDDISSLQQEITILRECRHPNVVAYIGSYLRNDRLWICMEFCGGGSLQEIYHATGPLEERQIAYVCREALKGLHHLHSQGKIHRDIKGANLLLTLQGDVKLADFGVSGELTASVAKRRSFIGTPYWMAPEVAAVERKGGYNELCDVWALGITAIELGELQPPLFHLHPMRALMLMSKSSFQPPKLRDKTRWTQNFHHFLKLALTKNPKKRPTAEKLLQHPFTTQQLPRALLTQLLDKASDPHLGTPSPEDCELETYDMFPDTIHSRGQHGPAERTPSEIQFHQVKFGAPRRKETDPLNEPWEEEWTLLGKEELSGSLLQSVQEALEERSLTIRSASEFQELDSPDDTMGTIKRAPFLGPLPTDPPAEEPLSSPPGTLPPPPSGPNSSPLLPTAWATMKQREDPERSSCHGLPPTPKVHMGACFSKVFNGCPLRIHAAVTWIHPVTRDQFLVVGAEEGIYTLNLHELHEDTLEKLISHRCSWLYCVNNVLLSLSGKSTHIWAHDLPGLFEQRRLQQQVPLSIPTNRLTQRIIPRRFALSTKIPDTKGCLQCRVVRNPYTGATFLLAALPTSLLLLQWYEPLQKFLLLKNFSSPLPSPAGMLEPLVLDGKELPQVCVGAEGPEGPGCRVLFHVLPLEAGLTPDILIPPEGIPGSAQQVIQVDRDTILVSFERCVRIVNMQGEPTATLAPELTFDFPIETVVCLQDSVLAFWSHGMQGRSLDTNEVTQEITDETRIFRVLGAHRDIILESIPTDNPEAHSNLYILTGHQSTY
UniProt P28482, whole entry: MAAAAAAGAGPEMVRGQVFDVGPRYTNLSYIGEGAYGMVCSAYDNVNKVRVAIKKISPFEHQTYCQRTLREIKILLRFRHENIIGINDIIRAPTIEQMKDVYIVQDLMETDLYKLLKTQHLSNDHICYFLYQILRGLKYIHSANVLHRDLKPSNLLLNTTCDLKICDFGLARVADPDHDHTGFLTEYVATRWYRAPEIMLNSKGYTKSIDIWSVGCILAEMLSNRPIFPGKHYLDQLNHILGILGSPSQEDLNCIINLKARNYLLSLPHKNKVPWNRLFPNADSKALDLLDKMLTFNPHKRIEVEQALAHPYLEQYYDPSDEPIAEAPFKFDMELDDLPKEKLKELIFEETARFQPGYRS
UniProt Q9BUB5: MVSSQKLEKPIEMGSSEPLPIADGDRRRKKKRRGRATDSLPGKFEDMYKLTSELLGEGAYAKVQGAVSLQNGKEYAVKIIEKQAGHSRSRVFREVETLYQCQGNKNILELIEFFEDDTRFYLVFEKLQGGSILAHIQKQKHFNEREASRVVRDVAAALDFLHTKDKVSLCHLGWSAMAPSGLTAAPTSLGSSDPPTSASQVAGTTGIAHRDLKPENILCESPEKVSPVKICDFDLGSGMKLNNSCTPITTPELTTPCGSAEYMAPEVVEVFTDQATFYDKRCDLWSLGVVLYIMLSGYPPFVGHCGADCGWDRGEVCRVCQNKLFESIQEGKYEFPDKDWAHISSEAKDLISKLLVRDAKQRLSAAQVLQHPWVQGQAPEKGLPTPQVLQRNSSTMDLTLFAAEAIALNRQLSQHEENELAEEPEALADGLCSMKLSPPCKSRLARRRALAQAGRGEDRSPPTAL

Columns and labels:
Experiment in all cases: number of time points (of 5) at which kinase-Nluc abundance scored as decreased, DMSO-normalised (count); higher = more persistent destabilization
Conditions in all cases: K562; 2-18 h
FLT3 = FLT3 (UniProt P36888)
FYN = FYN (UniProt P06241)
GSK3A = GSK3A (UniProt P49840)
HER2 = HER2 (UniProt P04626)
INSRR = INSRR (UniProt P14616)
IRAK3 = IRAK3 (UniProt Q9Y616)
JAK1 = JAK1 (UniProt P23458)
LCK = LCK (UniProt P06239)
LIMK1 = LIMK1 (UniProt P53667)
LIMK2 = LIMK2 (UniProt P53671)
LMTK2 = LMTK2 (UniProt Q8IWU2)
LYN = LYN (UniProt P07948)
MAP2K1 = MAP2K1 (UniProt Q02750)
MAP2K2 = MAP2K2 (UniProt P36507)
MAP4K2 = MAP4K2 (UniProt Q12851)
MAPK1 = MAPK1 (UniProt P28482)
MAPK4 = MAPK4 (UniProt P31152)
MAPKAPK2 = MAPKAPK2 (UniProt P49137)
MKNK1 = MKNK1 (UniProt Q9BUB5)
NTRK2 = NTRK2 (UniProt Q16620)

Measured: number of time points

CCn1c(=O)c(-c2ccc(-c3cncs3)cc2Cl)cc2cnc(Nc3ccc(N4CCN(C)CC4)cc3)nc21 (2.5 µM)
0: all assays above

COc1ccc([C@@H]2CC(=O)c3c(O)cc(O)cc3O2)cc1O [Hesperetin] (10 µM)
0: all assays above

COc1c(NC(=O)C(=O)c2ccc(OCCN3CCOCC3)c3ccccc23)cc(C(C)(C)C)cc1NS(C)(=O)=O (2.5 µM)
0: all assays above

CCn1c(=O)c(-c2ccc(-c3cncc(C)n3)cc2Cl)cc2cnc(NCCC3CCN(C)CC3)nc21 (10 µM)
0: all assays above

COc1cc2c[n+](C)c3c4cc5c(cc4ccc3c2cc1OC)OCO5 [Nitidine (chloride)] (2 µM)
0: all assays above

Cc1ccc(S(=O)(=O)/C=C/C#N)cc1 (10 µM)
2: HER2 | NTRK2
0: all other assays above

COc1cc([N+](=O)[O-])ccc1S(=O)(=O)N1C[C@@H](CN2CCN(c3ccccn3)CC2)[C@H](c2cccc(F)c2)C1 (relative stereo) (10 µM)
0: all assays above

C[C@@H](c1ccc2nccn2c1)n1nnc2ncc(-c3cnn(C)c3)nc21 [Savolitinib] (10 µM)
0: all assays above

CCc1cc(O)c(F)cc1-c1ccc2c(-c3nc4c([nH]3)CN(C3CCN(C)CC3)CC4)n[nH]c2c1 [JAK-IN-5 (hydrochloride)] (2 µM)
4: FYN
3: JAK1
2: INSRR | IRAK3
0: all other assays above

COc1ccc(Cn2cc(C(=O)N=Nc3c(O)[nH]c4c(C)cccc34)nn2)cc1 [MARK4 inhibitor 1] (10 µM)
0: all assays above

COCCOc1ccc(-c2cn(-c3ccccc3)c3nc[nH]c(=O)c23)cc1 (10 µM)
0: all assays above

Cc1cc(-c2cc(OC(=O)c3ccccc3)ccc2Cl)cc2nnc(Nc3ccc(OCCN4CCCC4)cc3)nc12 (0.5 µM)
0: all assays above

NCc1ccc(Nc2ncc(F)c(Nc3ccccc3)n2)cc1 (10 µM)
0: all assays above

C=CC(=O)Nc1cc2c(Nc3ccc(OCc4ccccn4)c(Cl)c3)ncnc2cc1OCCN1CCOCC1 (10 µM)
5: HER2
0: all other assays above

CCn1c(C(=O)N(C2CC2)C2CC2)cc2c3c(ncn3C)c(Nc3cc(C)n(C)n3)nc21 (10 µM)
0: all assays above

COc1cc(F)c(F)c(Nc2ccc(I)cc2F)c1NS(=O)(=O)C1(C[C@H](O)CO)CC1 [Refametinib] (10 µM)
1: MAPK4
2: INSRR
0: all other assays above

CC/C=C\C/C=C\C/C=C\CCCCCCCC(=O)O [α-Linolenic acid] (10 µM)
0: all assays above

CC(C)=CC[C@H](O)C1=CC(=O)c2c(O)ccc(O)c2C1=O [(-)-Alkannin] (2.5 µM)
0: all assays above

CN1C(=O)C(Cc2c[nH]c3ccccc23)NC1=S (stereo not given) [Necrostatin-1] (10 µM)
0: all assays above

OC(COc1ccc(C(F)(F)F)cc1)CN(Cc1ccccc1)Cc1ccccc1 (stereo not given) (2.5 µM)
0: all assays above

c1cn2cc(-c3ccc4cn[nH]c4c3)nc(Nc3ccc(N4CCOCC4)cc3)c2n1 [Entospletinib] (10 µM)
0: all assays above

Nc1ncnc2c1c(-c1ccc(Oc3ccccc3)cc1)nn2C1CCNCC1 [N-piperidine Ibrutinib (hydrochloride)] (10 µM)
2: LIMK1
3: INSRR
0: all other assays above

O=C(Nc1nc2ccccc2[nH]1)c1cccc(-n2cccc2)c1 (10 µM)
0: all assays above

COCCO[C@@H]1[C@H](O)[C@@H](CO)O[C@H]1n1cnc2c(=O)[nH]c(N)nc21 [2′-O-(2-Methoxyethyl)guanosine] (10 µM)
0: all assays above

CCn1c(-c2nonc2N)nc2cnc(Oc3cccc(NC(=O)c4ccc(OCCN5CCOCC5)cc4)c3)cc21 (10 µM)
3: HER2 | NTRK2
0: all other assays above

Cc1cc(O)c(C(C)C)cc1N=O [Poloxime] (10 µM)
2: FYN
0: all other assays above

COc1cc(N2CCN(C)CC2)ccc1Nc1ncc2c(n1)N(C1CCC1)C(=O)N(c1c(C)cccc1C)C2 (2.5 µM)
0: all assays above

CC(C)=CCC[C@](C)(O[C@@H]1O[C@H](CO)[C@@H](O)[C@H](O)[C@H]1O)[C@H]1CC[C@]2(C)[C@@H]1[C@H](O)C[C@@H]1[C@@]3(C)CC[C@H](O)C(C)(C)[C@@H]3[C@@H](O[C@@H]3O[C@H](CO)[C@@H](O)[C@H](O)[C@H]3O[C@@H]3O[C@@H](C)[C@H](O)[C@@H](O)[C@H]3O)C[C@]12C [Ginsenoside Re] (10 µM)
0: all assays above

COC1(C(=O)N2Cc3nc(Cl)nc(N[C@H](C)c4cc(N)cc(C(F)(F)F)c4)c3C2)CCOCC1 (10 µM)
0: all assays above

Cc1cc(Nc2cc(Cl)nc(Oc3ccc([N+](=O)[O-])cc3)n2)n[nH]1 [Autophinib] (2.5 µM)
0: all assays above

CC(=NNC(=O)c1ccc(C)c(Br)c1)c1ccc(O)cc1O [mTOR inhibitor-1] (2.5 µM)
1: FYN
0: all other assays above

C=CC(=O)Nc1ccc(CN(C(=O)Nc2c(Cl)c(OC)cc(OC)c2Cl)c2cc(Nc3ccc(N4CCN(C)CC4)cc3)ncn2)cc1 (10 µM)
0: all assays above

A draw from above in order of formula weight, descending:
CC(C)=CCC[C@](C)(O[C@@H]1O[C@H](CO)[C@@H](O)[C@H](O)[C@H]1O)[C@H]1CC[C@]2(C)[C@@H]1[C@H](O)C[C@@H]1[C@@]3(C)CC[C@H](O)C(C)(C)[C@@H]3[C@@H](O[C@@H]3O[C@H](CO)[C@@H](O)[C@H](O)[C@H]3O[C@@H]3O[C@@H](C)[C@H](O)[C@@H](O)[C@H]3O)C[C@]12C [Ginsenoside Re] (10 µM)
0: all assays above

C=CC(=O)Nc1ccc(CN(C(=O)Nc2c(Cl)c(OC)cc(OC)c2Cl)c2cc(Nc3ccc(N4CCN(C)CC4)cc3)ncn2)cc1 (10 µM)
0: all assays above

CC(=NNC(=O)c1ccc(C)c(Br)c1)c1ccc(O)cc1O [mTOR inhibitor-1] (2.5 µM)
1: FYN
0: all other assays above

Next results.

CC(C)=CC(=O)CCC(=O)N1CCN(Cc2cc3nc(-c4cccc5[nH]ncc45)nc(N4CCOCC4)c3s2)CC1 (10 µM)
5: HER2
0: all other assays above

CCN1CCN(Cc2ccc(Nc3ncc(F)c(-c4cc(F)c5nc(CO)n(C(C)C)c5c4)n3)nc2)CC1 [Abemaciclib metabolite M20] (2 µM)
0: all assays above

COc1ncc(-c2nc(N3CCOCC3)nc3c(CN4CCC(C(C)(C)O)CC4)cc(F)cc23)cc1NS(C)(=O)=O [Linperlisib] (10 µM)
0: all assays above

COCCOc1cnc(Sc2cc(C)c(-c3csc(NC(=O)c4ccncc4)n3)c(C)c2)cn1 [T-1101 (tosylate)] (2.5 µM)
2: FYN | LMTK2
0: all other assays above

CNC(=O)c1ccc(-c2cnc3cnc(C(=O)N(C)c4ccc(Cl)cc4)cn23)cc1 (2.5 µM)
0: all assays above

COc1cc(S(C)(=O)=O)ccc1Nc1nc2ccc(-c3ccc(NC(=O)[C@H](C)c4ccc(F)cc4)cc3)cn2n1 [Empesertib] (10 µM)
0: all assays above

COc1cc(C(N)=O)nc(-c2cccc(C#C[C@]3(O)CCN(C)C3=O)c2)c1 (10 µM)
0: all assays above

C=C(C)C(=O)Nc1cccc(-c2ncnc3[nH]cc(C(=O)OCC)c23)c1 (10 µM)
0: all assays above

OCCNC1CCCc2c1[nH]c1ccc(-c3ccccc3)cc21 (stereo not given) (2.5 µM)
5: LIMK2
2: HER2
3: LIMK1
1: FYN | INSRR | LYN
0: all other assays above

O=C1Nc2nc(-c3c(O)cccc3OCC3CC3)cc([C@@H]3CCCNC3)c2CO1 [Bay 65-1942 (hydrochloride)] (10 µM)
1: FLT3 | LMTK2
2: LIMK1
3: FYN | JAK1
0: all other assays above

CO[C@H]1C[C@@H]2CC[C@@H](C)[C@@](O)(O2)C(=O)C(=O)N2CCCC[C@H]2C(=O)O[C@H]([C@H](C)C[C@@H]2CC[C@@H](O)[C@H](OC)C2)CC(=O)[C@H](C)/C=C(\C)[C@@H](O)[C@@H](OC)C(=O)[C@H](C)C[C@H](C)/C=C/C=C/C=C/1C [Rapamycin] (10 µM)
0: all assays above

CC(=O)c1c(C)c2cnc(Nc3ccc(N4CCN(CCCCNC(=O)COc5cccc6c5C(=O)N(C5CCC(=O)NC5=O)C6=O)CC4)cn3)nc2n(C2CCCC2)c1=O (stereo not given) (10 µM)
0: all assays above

CC(=O)N1CCN(c2cc(-c3cc(C(F)(F)F)c4c(N)ncnn34)ccc2C#N)C(=O)C1(C)C (10 µM)
0: all assays above

CC(C)CN(CC(=O)N1CCN(CC(OCc2ccc3ccccc3c2)c2ccc(Cl)cc2Cl)CC1)CC(C)C (stereo not given) [LYN-1604 (dihydrochloride)] (2.5 µM)
0: all assays above
